Assay results from PubChem BioAssay AID192 (DTP/NCI, 2004).
The list does not hold the whole screen: it gathers tests that were run many times, whatever their T/C, doses with no T/C, and many T/C values between a quarter and a half above the control. Other doses and runs of a compound stand elsewhere. T/C is the treated group as % of the vehicle group. Some doses have a count of surviving animals in place of a T/C: the source holds a T/C of zero for them, seemingly a mark for toxic or unscored doses. Some survivor counts are full or nearly so, which does not show that the dose was tolerated: the source hardly ever lists a survival T/C far under the control, and the zero likely stands for such cases as well. Survivors were counted at the toxicity check, usually on the fifth day, unless a day is given; later deaths do not show. Schedule codes are those of the source, taken here to give the interval after Q, in days (D) or hours (H), and the number of doses after X. Counts like (3×) stand for listed records that agree. Some entries were tested several times; the values are given in rising order. Some molecules as drawn cover several salts, stereoisomers or complexes of the source; a dose is that of the sample tested. Where survival is the endpoint, this PubChem deposit counts one and a half times the control or more as active, and values a quarter to a half above the control carry no call in these data; other NCI protocols may use other cut-offs. Some T/C values carry the count of animals alive at the toxicity check (mostly the fifth day); where none is given, no animal had died by that day.

System: BDF1 mice, B16 melanoma ip, median survival T/C
Experiment: NCI In Vivo Anticancer Drug Screen. Data for tumor model B16 Melanoma (intraperitoneal) in B6D2F1 (BDF1) mice
Conditions: T/C endpoint: median survival time, higher T/C = longer survival
Summary of the method: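 The ratio T/C compares compound-treated mice with vehicle-treated controls, using survival or tumor size as the endpoint in a transplantable tumor model.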

[1] = dose: 50.0 mg/kg/injection, schedule: Q01DX009 (ip), vehicle: saline
[2] = dose: 100.0 mg/kg/injection, schedule: Q01DX009 (ip), vehicle: saline
[3] = dose: 400.0 mg/kg/injection, schedule: Q01DX009 (ip), vehicle: suspension in saline
[4] = dose: 50.0 mg/kg/injection, schedule: Q01DX009 (ip), vehicle: saline with Tween-80
[5] = dose: 100.0 mg/kg/injection, schedule: Q01DX009 (ip), vehicle: saline with Tween-80
[6] = dose: 400.0 mg/kg/injection, schedule: Q01DX009 (ip), vehicle: saline
[7] = dose: 200.0 mg/kg/injection, schedule: Q01DX009 (ip), vehicle: saline
[8] = dose: 0.64 mg/kg/injection, schedule: Q01DX001 (ip), vehicle: water
[9] = dose: 200.0 mg/kg/injection, schedule: Q01DX009 (ip), vehicle: Klucel (hydroxypropylcellulose) (HPC)
[10] = dose: 400.0 mg/kg/injection, schedule: Q01DX009 (ip), vehicle: Klucel (hydroxypropylcellulose) (HPC)
[11] = dose: 0.05 mg/kg/injection, schedule: Q01DX009 (ip), vehicle: saline

## c1nnc(NCNc2nncs2)s1
dose: 12.5 mg/kg/injection, schedule: Q01DX009 (ip), vehicle: saline
  T/C: 125 % of control
[1]
  survivor count: 10 of 10
[2]
  survivor count: 5 of 10
dose: 200.0 mg/kg/injection, schedule: Q04DX003 (ip), vehicle: saline
  survivor count: 8 of 10
dose: 400.0 mg/kg/injection, schedule: Q04DX003 (ip), vehicle: saline
  survivor count: 4 of 10

## CC/C(=C(\c1ccccc1)c1ccc(OCCN(C)C)cc1)c1ccccc1
[3]
  survivor count: 10 of 10

## COc1cc2c[n+](C)c3c4cc5c(cc4ccc3c2cc1OC)OCO5
dose: 6.25 mg/kg/injection, schedule: Q01DX009 (ip), vehicle: saline with Tween-80
  T/C: 131 % of control
dose: 10.0 mg/kg/injection, schedule: Q01DX009 (ip), vehicle: water
  T/C: 136 % of control
dose: 12.5 mg/kg/injection, schedule: Q01DX009 (ip), vehicle: saline with Tween-80
  T/C: 132 % of control
dose: 20.0 mg/kg/injection, schedule: Q01DX009 (ip), vehicle: water
  T/C: 141 % of control
dose: 25.0 mg/kg/injection, schedule: Q01DX009 (ip), vehicle: saline with Tween-80
  T/C: 141 % of control
[4]
  survivor count: 10 of 10
dose: 80.0 mg/kg/injection, schedule: Q01DX009 (ip), vehicle: water
  survivor count: 10 of 10
[5]
  survivor count: 10 of 10 (2×)

## COc1c2occc2cc2ccc(=O)oc12
[4]
  T/C: 125 % of control [9 of 10 alive]
dose: 256.0 mg/kg/injection, schedule: Q01DX009 (ip), vehicle: saline with Tween-80
  survivor count: 6 of 10

## O=CNc1c(Cl)c(Cl)c2c(c1Cl)Cc1cc(Cl)ccc1-2
dose: 0.37 mg/kg/injection, schedule: Q01DX009 (ip), vehicle: DMSO
  survivor count: 10 of 10
dose: 0.75 mg/kg/injection, schedule: Q01DX009 (ip), vehicle: DMSO
  survivor count: 10 of 10
dose: 1.5 mg/kg/injection, schedule: Q01DX009 (ip), vehicle: DMSO
  survivor count: 10 of 10 and 9 of 9
dose: 3.0 mg/kg/injection, schedule: Q01DX009 (ip), vehicle: DMSO
  survivor count: 10 of 10
dose: 6.0 mg/kg/injection, schedule: Q01DX009 (ip), vehicle: DMSO
  survivor count: 9 of 9
dose: 25.0 mg/kg/injection, schedule: Q01DX009 (ip), vehicle: DMSO
  survivor count: 10 of 10
dose: 50.0 mg/kg/injection, schedule: Q01DX009 (ip), vehicle: DMSO
  survivor count: 8 of 10
dose: 100.0 mg/kg/injection, schedule: Q01DX009 (ip), vehicle: DMSO
  survivor count: 3 of 10

## O=C(NO)c1ccccc1
dose: 200.0 mg/kg/injection, schedule: Q01DX009 (ip), vehicle: suspension in saline
  survivor count: 7 of 10
dose: 266.0 mg/kg/injection, schedule: Q04DX003 (ip), vehicle: saline with Tween-80
  survivor count: 7 of 10
[6]
  survivor count: 6 of 10
[3]
  survivor count: 4 of 10
dose: 400.0 mg/kg/injection, schedule: Q04DX003 (ip), vehicle: saline with Tween-80
  survivor count: 8 of 10

## CN(C)CCC(c1ccccc1)c1cc(Cl)ccn1 (stereo unspecified)
[7]
  survivor count: 0 of 10
[6]
  survivor count: 0 of 10

## CC(=O)[C@]1(O)Cc2c(O)c3c(c(O)c2[C@@H](OC2CC(N)C(O)C(C)O2)C1)C(=O)c1c(O)cccc1C3=O (stereo partly specified)
dose: 0.04 mg/kg/injection, schedule: Q01DX001 (ip), vehicle: water
  T/C: 135 % of control
dose: 0.16 mg/kg/injection, schedule: Q01DX001 (ip), vehicle: water
  T/C: 144 % of control
dose: 0.32 mg/kg/injection, schedule: Q01DX001 (ip), vehicle: water
  T/C: 131 and 139 % of control
[8]
  T/C: 129 % of control
  survivor count: 9 of 10
dose: 0.75 mg/kg/injection, schedule: Q01DX001 (ip), vehicle: water
  T/C: 133 % of control
dose: 1.28 mg/kg/injection, schedule: Q01DX001 (ip), vehicle: water
  survivor count: 2 of 10 and 10 of 10
dose: 1.5 mg/kg/injection, schedule: Q01DX001 (ip), vehicle: water
  survivor count: 10 of 10
dose: 3.0 mg/kg/injection, schedule: Q01DX001 (ip), vehicle: water
  survivor count: 9 of 10
dose: 6.0 mg/kg/injection, schedule: Q01DX001 (ip), vehicle: water
  survivor count: 6 of 10

## Cc1n(Cc2ccccc2)c2c([n+]1C)C(=O)c1ccccc1C2=O
dose: 2.0 mg/kg/injection, schedule: Q01DX009 (ip), vehicle: saline
  survivor count: 6 of 6

## COC1=CC(=O)C(OC)=C(OC)C1=O
[5]
  survivor count: 0 of 10

## O=c1oc(/C=C/c2ccccc2)nc2cc(Cl)ccc12
[9]
  T/C: 130 % of control
[10]
  survivor count: 5 of 10

## CNC1=C(N2CC2)C(=O)C(NC)=C(N2CC2)C1=O
dose: 0.02 mg/kg/injection, schedule: Q01DX009 (ip), vehicle: saline
  T/C: 128 % of control
[11]
  T/C: 129 % of control
  survivor count: 9 of 10
dose: 0.1 mg/kg/injection, schedule: Q01DX009 (ip), vehicle: saline
  survivor count: 10 of 10
dose: 0.2 mg/kg/injection, schedule: Q01DX009 (ip), vehicle: saline
  survivor count: 10 of 10
dose: 0.4 mg/kg/injection, schedule: Q01DX009 (ip), vehicle: saline
  survivor count: 10 of 10

## O=C/C=C/c1ccc([N+](=O)[O-])cc1
[4]
  survivor count: 6 of 6
[5]
  survivor count: 4 of 6

## CC(=O)[C@H]1CC[C@H]2[C@@H]3C[C@H](C)C4=CC(=O)CC[C@]4(C)[C@H]3C(=O)C[C@]12C
dose: 800.0 mg/kg/injection, schedule: Q01DX009 (ip), vehicle: Klucel (hydroxypropylcellulose) (HPC)
  survivor count: 1 of 6

## COc1cc2c[n+](C)c3c4cc(OC)c(OC)cc4ccc3c2cc1OC
[9]
  survivor count: 4 of 10
[10]
  survivor count: 6 of 10

## O=NN(CCF)C(=O)N[C@H]1CCCC[C@H]1O
dose: 30.0 mg/kg/injection, schedule: Q01DX001 (ip), vehicle: saline
  T/C: 149 % of control
dose: 120.0 mg/kg/injection, schedule: Q01DX001 (ip), vehicle: saline
  survivor count: 4 of 10 on day 6

## CN(C)CCCCNc1ccc(NCCCCN(C)C)c2c1C(=O)c1c(O)ccc(O)c1C2=O
[1]
  survivor count: 10 of 10
[2]
  survivor count: 2 of 10
[7]
  survivor count: 0 of 10

## COc1ccc(NC2=C(C)C(=O)C3=C(C2=O)[C@H](COC(N)=O)[C@]2(OC)[C@@H]4N[C@@H]4CN32)cc1OC
dose: 12.0 mg/kg/injection, schedule: Q04DX003 (ip), vehicle: water
  survivor count: 10 of 10
dose: 24.0 mg/kg/injection, schedule: Q04DX003 (ip), vehicle: water
  survivor count: 10 of 10

## CCCCN(CCCC)CC(O)c1ccnc2cc3c(cc12)OCO3 (stereo unspecified)
dose: 200.0 mg/kg/injection, schedule: Q04DX003 (ip), vehicle: Klucel (hydroxypropylcellulose) (HPC)
  survivor count: 0 of 10
dose: 400.0 mg/kg/injection, schedule: Q04DX003 (ip), vehicle: Klucel (hydroxypropylcellulose) (HPC)
  survivor count: 0 of 10

## O=NNc1ccc(Cl)cn1
dose: 6.0 mg/kg/injection, schedule: Q01DX009 (ip), vehicle: water
  T/C: 132 % of control
dose: 12.0 mg/kg/injection, schedule: Q01DX009 (ip), vehicle: water
  T/C: 148 % of control [9 of 10 alive]

## CC(=O)CC(C)=O.CC(=O)CC(C)=O.O=N[O-].O=N[O-].[Co]
[5]
  survivor count: 10 of 10
dose: 200.0 mg/kg/injection, schedule: Q01DX009 (ip), vehicle: saline with Tween-80
  survivor count: 0 of 10

## Brc1ccc(C[N+]23CN4CN(CN(C4)C2)C3)cc1
[10]
  survivor count: 0 of 10

## NNC(=O)c1ccc(-c2ccccc2)cc1
dose: 200.0 mg/kg/injection, schedule: Q01DX009 (ip), vehicle: other
  survivor count: 6 of 10
